Taken from: PubChem BioAssay AID652259 (Drosophila RNAi Screening Center, 2013)
Aim: 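Identify new Wingless signalling regulators in fly cells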 (primary screen). Cell system: Drosophila clone 8 imaginal disc epithelial cells. Reagents: long dsRNA against Drosophila genes. Challenge: pathway stimulated by co-transfected Wingless expression plasmid. Measurement: 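Dual luciferase reads per well after Wingless plasmid stimulation: reporter firefly light and Renilla control light; activity is firefly divided by Renilla, a ratio not deposited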. Scale: firefly reporter light: higher = more Wg reporter light, before normalisation; Renilla control light: higher = more transfected or surviving cells. Hit rule: 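Strong candidates differ from their plate mean by at least two out of four per-plate statistical tests; weak candidates meet just one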. Calls: active = candidate regulator (raises or lowers reporter); inactive = not a candidate.
The screen tested about 22,000 reagents; below is a random part of those that have a named target and a result. In the full data, 233 (1.1%) were called active. 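Light values are raw, unnormalised plate reads; the ratio scores behind the reporter calls were not deposited.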 Unmarked entries are inactive. Reagent sequences are not shown. Not stated in the record: the amount of reagent, the time to read-out, the dose of the treatment.

| gene | amplicon | firefly reporter light, replicate 1 | firefly reporter light, replicate 2 | Renilla control light, replicate 1 | Renilla control light, replicate 2 |
| --- | --- | --- | --- | --- | --- |
| Rpp21 | DRSC22480 | 7.52e5 | 7.30e5 | 3.34e5 | 1.83e5 |
| CG8908 | DRSC07297 | 6134 | – | 2295 | – |
| slo | DRSC13685 | 6498 | – | 3173 | – |
| slo | DRSC17057 | 2690 | 4695 | 1132 | 1642 |
| slo | DRSC21896 | 3.61e5 | 3.83e5 | 1.45e5 | 1.40e5 |
| CG42685 | DRSC01971 | 5515 | 13693 | 2386 | 5536 |
| Skel | DRSC14905 | 10312 | – | 2096 | – |
| Skel | DRSC14906 | 5228 | – | 1552 | – |
| CG15865 | DRSC19733 | 18843 | – | 7178 | – |
| CG31275 | DRSC16919 | 15661 | – | 4100 | – |
| Elba1 | DRSC00276 | 2434 | 6103 | 1296 | 1360 |
| Ir52d | DRSC06264 | 5216 | – | 2225 | – |
| BomS4 | DRSC22509 | 7.89e5 | 8.42e5 | 3.41e5 | 2.74e5 |
| CG5653 | DRSC10534 | 1101 | 5760 | 1351 | 1609 |
| P5cr | DRSC16782 | 15875 | – | 3324 | – |
| PhKgamma | DRSC20268 | 2704 | 6754 | 1000 | 2714 |
| acs | DRSC08185 | 7050 | – | 2426 | – |
| Zasp67 | DRSC10169 | 11323 | – | 4402 | – |
| CG4576 | DRSC15604 | 16170 | – | 3040 | – |
| CG34353 | DRSC14493 | 9446 | – | 4436 | – |
| CG34353 | DRSC14517 | 11366 | – | 3666 | – |
| CG34353 | DRSC14563 | 10547 | – | 3619 | – |
| CG34353 | DRSC15837 | 8752 | – | 3234 | – |
| CG34353 | DRSC22429 | 4.86e5 | 5.65e5 | 2.35e5 | 88725 |
| spd-2 | DRSC09682 | 2436 | – | 931 | – |
| CG34171 | DRSC01637 | 22038 | – | 10117 | – |
| CG15731 | DRSC19698 | 20260 | – | 11920 | – |
| CG15731 | DRSC21820 | 6.96e5 | 7.95e5 | 3.60e5 | 2.46e5 |
| PPO3 | DRSC04325 | 8893 | – | 3197 | – |
